Reference: PMC7956269

B1: Pds5b (protein, UniProt Q9NTI5 1-1447)
chain: MAHSKTRTNDGKITYPPGVKEISDKISKEEMVRRLKMVVKTFMDMDQDSEEEKELYLNLALHLASDFFLKHPDKDVRLLVACCLADIFRIYAPEAPYTSPDKLKDIFMFITRQLKGLEDTKSPQFNRYFYLLENIAWVKSYNICFELEDSNEIFTQLYRTLFSVINNGHNQKVHMHMVDLMSSIICEGDTVSQELLDTVLVNLVPAHKNLNKQAYDLAKALLKRTAQAIEPYITNFFNQVLMLGKTSISDLSEHVFDLILELYNIDSHLLLSVLPQLEFKLKSNDNEERLQVVKLLAKMFGAKDSELASQNKPLWQCYLGRFNDIHVPIRLECVKFASHCLMNHPDLAKDLTEYLKVRSHDPEEAIRHDVIVSIVTAAKKDILLVNDHLLNFVRERTLDKRWRVRKEAMMGLAQIYKKYALQSAAGKDAAKQIAWIKDKLLHIYYQNSIDDRLLVERIFAQYMVPHNLETTERMKCLYYLYATLDLNAVKALNEMWKCQNLLRHQVKDLLDLIKQPKTDASVKAIFSKVMVITRNLPDPGKAQDFMKKFTQVLEDDEKIRKQLEVLVSPTCSCKQAEGCVREITKKLGNPKQPTNPFLEMIKFLLERIAPVHIDTESISALIKQVNKSIDGTADDEDEGVPTDQAIRAGLELLKVLSFTHPISFHSAETFESLLACLKMDDEKVAEAALQIFKNTGSKIEEDFPHIRSALLPVLHHKSKKGPPRQAKYAIHCIHAIFSSKETQFAQIFEPLHKSLDPSNLEHLITPLVTIGHIALLAPDQFAAPLKSLVATFIVKDLLMNDRLPGKKTTKLWVPDEEVSPETMVKIQAIKMMVRWLLGMKNNHSKSGTSTLRLLTTILHSDGDLTEQGKISKPDMSRLRLAAGSAIVKLAQEPCYHEIITLEQYQLCALAINDECYQVRQVFAQKLHKGLSRLRLPLEYMAICALCAKDPVKERRAHARQCLVKNINVRREYLKQHAAVSEKLLSLLPEYVVPYTIHLLAHDPDYVKVQDIEQLKDVKECLWFVLEILMAKNENNSHAFIRKMVENIKQTKDAQGPDDAKMNEKLYTVCDVAMNIIMSKSTTYSLESPKDPVLPARFFTQPDKNFSNTKNYLPPEMKSFFTPGKPKTTNVLGAVNKPLSSAGKQSQTKSSRMETVSNASSSSNPSSPGRIKGRLDSSEMDHSENEDYTMSSPLPGKKSDKRDDSDLVRSELEKPRGRKKTPVTEQEEKLGMDDLTKLVQEQKPKGSQRSRKRGHTASESDEQQWPEEKRLKEDILENEDEQNSPPKKGKRGRPPKPLGGGTPKEEPTMKTSKKGSKKKSGPPAPEEEEEEERQSGNTEQKSKSKQHRVSRRAQQRAESPESSAIESTQSTPQKGRGRPSKTPSPSQPKKNVRVGRSKQAATKENDSSEEVDVFQGSSPVDDIPQEETEEEEVSTVNVRRRSAKRERR
B2: Aatf (protein, UniProt Q9NY61 1-560)
chain: MAGPQPLALQLEQLLNPRPSEADPEADPEEATAARVIDRFDEGEDGEGDFLVVGSIRKLASASLLDTDKRYCGKTTSRKAWNEDHWEQTLPGSSDEEISDEEGSGDEDSEGLGLEEYDEDDLGAAEEQECGDHRESKKSRSHSAKTPGFSVQSISDFEKFTKGMDDLGSSEEEEDEESGMEEGDDAEDSQGESEEDRAGDRNSEDDGVVMTFSSVKVSEEVEKGRAVKNQIALWDQLLEGRIKLQKALLTTNQLPQPDVFPLFKDKGGPEFSSALKNSHKALKALLRSLVGLQEELLFQYPDTRYLVDGTKPNAGSEEISSEDDELVEEKKQQRRRVPAKRKLEMEDYPSFMAKRFADFTVYRNRTLQKWHDKTKLASGKLGKGFGAFERSILTQIDHILMDKERLLRRTQTKRSVYRVLGKPEPAAQPVPESLPGEPEILPQAPANAHLKDLDEEIFDDDDFYHQLLRELIERKTSSLDPNDQVAMGRQWLAIQKLRSKIHKKVDRKASKGRKLRFHVLSKLLSFMAPIDHTTMNDDARTELYRSLFGQLHPPDEGHGD
B3: Nop58 (protein, UniProt Q9Y2X3 1-529)
chain: MLVLFETSVGYAIFKVLNEKKLQEVDSLWKEFETPEKANKIVKLKHFEKFQDTAEALAAFTALMEGKINKQLKKVLKKIVKEAHEPLAVADAKLGGVIKEKLNLSCIHSPVVNELMRGIRSQMDGLIPGVEPREMAAMCLGLAHSLSRYRLKFSADKVDTMIVQAISLLDDLDKELNNYIMRCREWYGWHFPELGKIISDNLTYCKCLQKVGDRKNYASAKLSELLPEEVEAEVKAAAEISMGTEVSEEDICNILHLCTQVIEISEYRTQLYEYLQNRMMAIAPNVTVMVGELVGARLIAHAGSLLNLAKHAASTVQILGAEKALFRALKSRRDTPKYGLIYHASLVGQTSPKHKGKISRMLAAKTVLAIRYDAFGEDSSSAMGVENRAKLEARLRTLEDRGIRKISGTGKALAKTEKYEHKSEVKTYDPSGDSTLPTCSKKRKIEQVDKEDEITEKKAKKAKIKVKVEEEEEEKVAEEEETSVKKKKKRGKKKHIKEEPLSEEEPCTSTAIASPEKKKKKKKKRENED
B4: Csrp2 (protein, UniProt Q16527 1-193)
chain: MPVWGGGNKCGACGRTVYHAEEVQCDGRSFHRCCFLCMVCRKNLDSTTVAIHDEEIYCKSCYGKKYGPKGYGYGQGAGTLNMDRGERLGIKPESVQPHRPTTNPNTSKFAQKYGGAEKCSRCGDSVYAAEKIIGAGKPWHKNCFRCAKCGKSLESTTLTEKEGEIYCKGCYAKNFGPKGFGYGQGAGALVHAQ
B5: Arg1 (protein, UniProt P05089 1-322)
chain: MSAKSRTIGIIGAPFSKGQPRGGVEEGPTVLRKAGLLEKLKEQECDVKDYGDLPFADIPNDSPFQIVKNPRSVGKASEQLAGKVAEVKKNGRISLVLGGDHSLAIGSISGHARVHPDLGVIWVDAHTDINTPLTTTSGNLHGQPVSFLLKELKGKIPDVPGFSWVTPCISAKDIVYIGLRDVDPGEHYILKTLGIKYFSMTEVDRLGIGKVMEETLSYLLGRKKRPIHLSFDVDGLDPSFTPATGTPVVGGLTYREGLYITEEIYKTGLLSGLDIMEVNPSLGKTPEEVTRTVNTAVAITLACFGLAREGNHKPIDYLNPPK
B6: Prpf3 (protein, UniProt O43395 1-683)
chain: MALSKRELDELKPWIEKTVKRVLGFSEPTVVTAALNCVGKGMDKKKAADHLKPFLDDSTLRFVDKLFEAVEEGRSSRHSKSSSDRSRKRELKEVFGDDSEISKESSGVKKRRIPRFEEVEEEPEVIPGPPSESPGMLTKLQIKQMMEAATRQIEERKKQLSFISPPTPQPKTPSSSQPERLPIGNTIQPSQAATFMNDAIEKARKAAELQARIQAQLALKPGLIGNANMVGLANLHAMGIAPPKVELKDQTKPTPLILDEQGRTVDATGKEIELTHRMPTLKANIRAVKREQFKQQLKEKPSEDMESNTFFDPRVSIAPSQRQRRTFKFHDKGKFEKIAQRLRTKAQLEKLQAEISQAARKTGIHTSTRLALIAPKKELKEGDIPEIEWWDSYIIPNGFDLTEENPKREDYFGITNLVEHPAQLNPPVDNDTPVTLGVYLTKKEQKKLRRQTRREAQKELQEKVRLGLMPPPEPKVRISNLMRVLGTEAVQDPTKVEAHVRAQMAKRQKAHEEANAARKLTAEQRKVKKIKKLKEDISQGVHISVYRVRNLSNPAKKFKIEANAGQLYLTGVVVLHKDVNVVVVEGGPKAQKKFKRLMLHRIKWDEQTSNTKGDDDEESDEEAVKKTNKCVLVWEGTAKDRSFGEMKFKQCPTENMAREHFKKHGAEHYWDLALSESVLESTD
B7: Ltv1 (protein, UniProt Q96GA3 1-475)
chain: MPHRKKKPFIEKKKAVSFHLVHRSQRDPLAADESAPQRVLLPTQKIDNEERRAEQRKYGVFFDDDYDYLQHLKEPSGPSELIPSSTFSAHNRREEKEETLVIPSTGIKLPSSVFASEFEEDVGLLNKAAPVSGPRLDFDPDIVAALDDDFDFDDPDNLLEDDFILQANKATGEEEGMDIQKSENEDDSEWEDVDDEKGDSNDDYDSAGLLSDEDCMSVPGKTHRAIADHLFWSEETKSRFTEYSMTSSVMRRNEQLTLHDERFEKFYEQYDDDEIGALDNAELEGSIQVDSNRLQEVLNDYYKEKAENCVKLNTLEPLEDQDLPMNELDESEEEEMITVVLEEAKEKWDCESICSTYSNLYNHPQLIKYQPKPKQIRISSKTGIPLNVLPKKGLTAKQTERIQMINGSDLPKVSTQPRSKNESKEDKRARKQAIKEERKERRVEKKANKLAFKLEKRRQEKELLNLKKNVEGLKL
B8: Zc3h18 (protein, UniProt Q86VM9 1-953)
chain: MDVAESPERDPHSPEDEEQPQGLSDDDILRDSGSDQDLDGAGVRASDLEDEESAARGPSQEEEDNHSDEEDRASEPKSQDQDSEVNELSRGPTSSPCEEEGDEGEEDRTSDLRDEASSVTRELDEHELDYDEEVPEEPAPAVQEDEAEKAGAEDDEEKGEGTPREEGKAGVQSVGEKESLEAAKEKKKEDDDGEIDDGEIDDDDLEEGEVKDPSDRKVRPRPTCRFFMKGNCTWGMNCRFIHPGVNDKGNYSLITKADPFPPNGAPPLGPHPLMPANPWGGPVVDEILPPPPPEPPTESAWERGLRHAKEVLKKATIRKEQEPDFEEKRFTVTIGEDEREFDKENEVFRDWNSRIPRDVRDTVLEPYADPYYDYEIERFWRGGQYENFRVQYTETEPYHNYRERERERERENRQRERERERERDRERERRQRERERERERERDKERQRRKEEWERERAKRDEKDRQHRDRDREKEREKEKGKPKPRSPQPPSRQAEPPKKEAATTGPQVKRADEWKDPWRRSKSPKKKLGVSVSPSRARRRRKTSASSASASNSSRSSSRSSSYSGSGSSRSRSRSSSYSSYSSRSSRHSSFSGSRSRSRSFSSSPSPSPTPSPHRPSIRTKGEPAPPPGKAGEKSVKKPAPPPAPPQATKTTAPVPEPTKPGDPREARRKERPARTPPRRRTLSGSGSGSGSSYSGSSSRSRSLSVSSVSSVSSATSSSSSAHSVDSEDMYADLASPVSSASSRSPAPAQTRKEKGKSKKEDGVKEEKRKRDSSTQPPKSAKPPAGGKSSQQPSTPQQAPPGQPQQGTFVAHKEIKLTLLNKAADKGSRKRYEPSDKDRQSPPPAKRPNTSPDRGSRDRKSGGRLGSPKPERQRGQNSKAPAAPADRKRQLSPQSKSSSKVTSVPGKASDPGAASTKSGKASTLSRREELLKQLKAVEDAIARKRAKIPGKA

Target: Biotin-FOXC1 (mouse) (UniProt Q61572)
Test: affinity purification with mass spectrometry; streptavidin-agarose precipitation of biotinylated FOXC1 from nuclear extract of stable HEK293T cells (293T-Biotin-FOXC1); IP350 buffer (350 mM NaCl, 20 mM Tris-HCl pH 7.5, 0.5% NP40, 1 mM EDTA, 10% glycerin); SDS-PAGE, LC-ESI-MS/MS; proteins of the 293T-Biotin control deducted

| binding | Binder |
| --- | --- |
| binds | B1 |
| binds | B2 |
| binds | B3 |
| binds | B4 |
| binds | B5 |
| binds | B6 |
| binds | B7 |
| binds | B8 |

Results are given in words; binding and its absence hold for the method and conditions named. In cells and extracts the contact can be indirect. A yes stands for co-enrichment or nearness to the bait. Other partners may have been found.
